{
  "source": "patent US20250099530A1",
  "about": "“COMPOUND FOR USE IN PREVENTING AND/OR TREATING AN INFECTION CAUSED BY SARS-COV-2” (priority 2022, published 2025)",
  "tested_on": "SARS-CoV-2",
  "experiment": "Virus yield in infected cell supernatants by qRT-PCR (N and NSP6 genes)",
  "type": "cell-based, SARS-CoV-2 strain BetaCoV/France/IDF0372/2020",
  "details": "full treatment, 72 h post-infection",
  "note": "At least one structure is not confirmed: it was looked up by name or label, or the drawing left a doubt.",
  "data": [
    {"smiles": "CCC(CC)COC(=O)[C@H](C)N[P@](=O)(OC[C@H]1O[C@@](C#N)(c2ccc3c(N)ncnn23)[C@H](O)[C@@H]1O)Oc1ccccc1", "note": "[Remdesivir, reference compound]", "values": [
      {"measurement": "SARS-CoV-2 in the supernatant (N and NSP6 gene qRT-PCR)", "value": "significantly reduce"}
    ]}
  ]
}
